Laboratory results from paper PMC12664034, “The E3 ubiquitin ligase SPRYD3-MYCBP2(PAM) regulates mitotic cell fate and ubiquitination of USP11 to control spindle assembly” (The Journal of Biological Chemistry, 2025).
Like-named read-outs stand apart in the source and are kept apart here. Results are given in words; binding and its absence hold for the method and conditions named. In cells and extracts the contact can be indirect. A yes stands for co-enrichment or nearness to the bait. Other partners may have been found. Where a sequence is shown, tags or fusion partners need not be part of it. Blank lines part the entries; values can stand above or below the molecule they belong to.

Protein sequences, listed by entry. Tags and fused reporters are not part of them.
UniProt Q969H0: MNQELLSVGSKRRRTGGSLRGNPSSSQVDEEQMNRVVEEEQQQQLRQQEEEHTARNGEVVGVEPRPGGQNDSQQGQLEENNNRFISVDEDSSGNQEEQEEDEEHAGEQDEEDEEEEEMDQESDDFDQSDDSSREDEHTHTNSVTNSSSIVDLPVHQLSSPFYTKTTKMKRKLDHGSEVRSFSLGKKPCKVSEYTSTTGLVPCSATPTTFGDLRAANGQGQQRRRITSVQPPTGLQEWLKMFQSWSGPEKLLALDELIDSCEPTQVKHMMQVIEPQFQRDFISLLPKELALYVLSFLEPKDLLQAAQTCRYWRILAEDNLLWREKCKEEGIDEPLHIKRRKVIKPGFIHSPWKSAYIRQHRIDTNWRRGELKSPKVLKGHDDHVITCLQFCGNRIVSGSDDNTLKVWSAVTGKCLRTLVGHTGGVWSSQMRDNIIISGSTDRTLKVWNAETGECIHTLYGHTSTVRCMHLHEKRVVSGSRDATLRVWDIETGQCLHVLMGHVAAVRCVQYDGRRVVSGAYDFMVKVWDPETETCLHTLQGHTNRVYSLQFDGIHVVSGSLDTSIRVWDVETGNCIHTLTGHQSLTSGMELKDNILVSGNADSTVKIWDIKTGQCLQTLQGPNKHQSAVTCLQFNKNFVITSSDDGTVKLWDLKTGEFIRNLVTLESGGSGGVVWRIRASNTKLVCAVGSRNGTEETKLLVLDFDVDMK
UniProt O75592: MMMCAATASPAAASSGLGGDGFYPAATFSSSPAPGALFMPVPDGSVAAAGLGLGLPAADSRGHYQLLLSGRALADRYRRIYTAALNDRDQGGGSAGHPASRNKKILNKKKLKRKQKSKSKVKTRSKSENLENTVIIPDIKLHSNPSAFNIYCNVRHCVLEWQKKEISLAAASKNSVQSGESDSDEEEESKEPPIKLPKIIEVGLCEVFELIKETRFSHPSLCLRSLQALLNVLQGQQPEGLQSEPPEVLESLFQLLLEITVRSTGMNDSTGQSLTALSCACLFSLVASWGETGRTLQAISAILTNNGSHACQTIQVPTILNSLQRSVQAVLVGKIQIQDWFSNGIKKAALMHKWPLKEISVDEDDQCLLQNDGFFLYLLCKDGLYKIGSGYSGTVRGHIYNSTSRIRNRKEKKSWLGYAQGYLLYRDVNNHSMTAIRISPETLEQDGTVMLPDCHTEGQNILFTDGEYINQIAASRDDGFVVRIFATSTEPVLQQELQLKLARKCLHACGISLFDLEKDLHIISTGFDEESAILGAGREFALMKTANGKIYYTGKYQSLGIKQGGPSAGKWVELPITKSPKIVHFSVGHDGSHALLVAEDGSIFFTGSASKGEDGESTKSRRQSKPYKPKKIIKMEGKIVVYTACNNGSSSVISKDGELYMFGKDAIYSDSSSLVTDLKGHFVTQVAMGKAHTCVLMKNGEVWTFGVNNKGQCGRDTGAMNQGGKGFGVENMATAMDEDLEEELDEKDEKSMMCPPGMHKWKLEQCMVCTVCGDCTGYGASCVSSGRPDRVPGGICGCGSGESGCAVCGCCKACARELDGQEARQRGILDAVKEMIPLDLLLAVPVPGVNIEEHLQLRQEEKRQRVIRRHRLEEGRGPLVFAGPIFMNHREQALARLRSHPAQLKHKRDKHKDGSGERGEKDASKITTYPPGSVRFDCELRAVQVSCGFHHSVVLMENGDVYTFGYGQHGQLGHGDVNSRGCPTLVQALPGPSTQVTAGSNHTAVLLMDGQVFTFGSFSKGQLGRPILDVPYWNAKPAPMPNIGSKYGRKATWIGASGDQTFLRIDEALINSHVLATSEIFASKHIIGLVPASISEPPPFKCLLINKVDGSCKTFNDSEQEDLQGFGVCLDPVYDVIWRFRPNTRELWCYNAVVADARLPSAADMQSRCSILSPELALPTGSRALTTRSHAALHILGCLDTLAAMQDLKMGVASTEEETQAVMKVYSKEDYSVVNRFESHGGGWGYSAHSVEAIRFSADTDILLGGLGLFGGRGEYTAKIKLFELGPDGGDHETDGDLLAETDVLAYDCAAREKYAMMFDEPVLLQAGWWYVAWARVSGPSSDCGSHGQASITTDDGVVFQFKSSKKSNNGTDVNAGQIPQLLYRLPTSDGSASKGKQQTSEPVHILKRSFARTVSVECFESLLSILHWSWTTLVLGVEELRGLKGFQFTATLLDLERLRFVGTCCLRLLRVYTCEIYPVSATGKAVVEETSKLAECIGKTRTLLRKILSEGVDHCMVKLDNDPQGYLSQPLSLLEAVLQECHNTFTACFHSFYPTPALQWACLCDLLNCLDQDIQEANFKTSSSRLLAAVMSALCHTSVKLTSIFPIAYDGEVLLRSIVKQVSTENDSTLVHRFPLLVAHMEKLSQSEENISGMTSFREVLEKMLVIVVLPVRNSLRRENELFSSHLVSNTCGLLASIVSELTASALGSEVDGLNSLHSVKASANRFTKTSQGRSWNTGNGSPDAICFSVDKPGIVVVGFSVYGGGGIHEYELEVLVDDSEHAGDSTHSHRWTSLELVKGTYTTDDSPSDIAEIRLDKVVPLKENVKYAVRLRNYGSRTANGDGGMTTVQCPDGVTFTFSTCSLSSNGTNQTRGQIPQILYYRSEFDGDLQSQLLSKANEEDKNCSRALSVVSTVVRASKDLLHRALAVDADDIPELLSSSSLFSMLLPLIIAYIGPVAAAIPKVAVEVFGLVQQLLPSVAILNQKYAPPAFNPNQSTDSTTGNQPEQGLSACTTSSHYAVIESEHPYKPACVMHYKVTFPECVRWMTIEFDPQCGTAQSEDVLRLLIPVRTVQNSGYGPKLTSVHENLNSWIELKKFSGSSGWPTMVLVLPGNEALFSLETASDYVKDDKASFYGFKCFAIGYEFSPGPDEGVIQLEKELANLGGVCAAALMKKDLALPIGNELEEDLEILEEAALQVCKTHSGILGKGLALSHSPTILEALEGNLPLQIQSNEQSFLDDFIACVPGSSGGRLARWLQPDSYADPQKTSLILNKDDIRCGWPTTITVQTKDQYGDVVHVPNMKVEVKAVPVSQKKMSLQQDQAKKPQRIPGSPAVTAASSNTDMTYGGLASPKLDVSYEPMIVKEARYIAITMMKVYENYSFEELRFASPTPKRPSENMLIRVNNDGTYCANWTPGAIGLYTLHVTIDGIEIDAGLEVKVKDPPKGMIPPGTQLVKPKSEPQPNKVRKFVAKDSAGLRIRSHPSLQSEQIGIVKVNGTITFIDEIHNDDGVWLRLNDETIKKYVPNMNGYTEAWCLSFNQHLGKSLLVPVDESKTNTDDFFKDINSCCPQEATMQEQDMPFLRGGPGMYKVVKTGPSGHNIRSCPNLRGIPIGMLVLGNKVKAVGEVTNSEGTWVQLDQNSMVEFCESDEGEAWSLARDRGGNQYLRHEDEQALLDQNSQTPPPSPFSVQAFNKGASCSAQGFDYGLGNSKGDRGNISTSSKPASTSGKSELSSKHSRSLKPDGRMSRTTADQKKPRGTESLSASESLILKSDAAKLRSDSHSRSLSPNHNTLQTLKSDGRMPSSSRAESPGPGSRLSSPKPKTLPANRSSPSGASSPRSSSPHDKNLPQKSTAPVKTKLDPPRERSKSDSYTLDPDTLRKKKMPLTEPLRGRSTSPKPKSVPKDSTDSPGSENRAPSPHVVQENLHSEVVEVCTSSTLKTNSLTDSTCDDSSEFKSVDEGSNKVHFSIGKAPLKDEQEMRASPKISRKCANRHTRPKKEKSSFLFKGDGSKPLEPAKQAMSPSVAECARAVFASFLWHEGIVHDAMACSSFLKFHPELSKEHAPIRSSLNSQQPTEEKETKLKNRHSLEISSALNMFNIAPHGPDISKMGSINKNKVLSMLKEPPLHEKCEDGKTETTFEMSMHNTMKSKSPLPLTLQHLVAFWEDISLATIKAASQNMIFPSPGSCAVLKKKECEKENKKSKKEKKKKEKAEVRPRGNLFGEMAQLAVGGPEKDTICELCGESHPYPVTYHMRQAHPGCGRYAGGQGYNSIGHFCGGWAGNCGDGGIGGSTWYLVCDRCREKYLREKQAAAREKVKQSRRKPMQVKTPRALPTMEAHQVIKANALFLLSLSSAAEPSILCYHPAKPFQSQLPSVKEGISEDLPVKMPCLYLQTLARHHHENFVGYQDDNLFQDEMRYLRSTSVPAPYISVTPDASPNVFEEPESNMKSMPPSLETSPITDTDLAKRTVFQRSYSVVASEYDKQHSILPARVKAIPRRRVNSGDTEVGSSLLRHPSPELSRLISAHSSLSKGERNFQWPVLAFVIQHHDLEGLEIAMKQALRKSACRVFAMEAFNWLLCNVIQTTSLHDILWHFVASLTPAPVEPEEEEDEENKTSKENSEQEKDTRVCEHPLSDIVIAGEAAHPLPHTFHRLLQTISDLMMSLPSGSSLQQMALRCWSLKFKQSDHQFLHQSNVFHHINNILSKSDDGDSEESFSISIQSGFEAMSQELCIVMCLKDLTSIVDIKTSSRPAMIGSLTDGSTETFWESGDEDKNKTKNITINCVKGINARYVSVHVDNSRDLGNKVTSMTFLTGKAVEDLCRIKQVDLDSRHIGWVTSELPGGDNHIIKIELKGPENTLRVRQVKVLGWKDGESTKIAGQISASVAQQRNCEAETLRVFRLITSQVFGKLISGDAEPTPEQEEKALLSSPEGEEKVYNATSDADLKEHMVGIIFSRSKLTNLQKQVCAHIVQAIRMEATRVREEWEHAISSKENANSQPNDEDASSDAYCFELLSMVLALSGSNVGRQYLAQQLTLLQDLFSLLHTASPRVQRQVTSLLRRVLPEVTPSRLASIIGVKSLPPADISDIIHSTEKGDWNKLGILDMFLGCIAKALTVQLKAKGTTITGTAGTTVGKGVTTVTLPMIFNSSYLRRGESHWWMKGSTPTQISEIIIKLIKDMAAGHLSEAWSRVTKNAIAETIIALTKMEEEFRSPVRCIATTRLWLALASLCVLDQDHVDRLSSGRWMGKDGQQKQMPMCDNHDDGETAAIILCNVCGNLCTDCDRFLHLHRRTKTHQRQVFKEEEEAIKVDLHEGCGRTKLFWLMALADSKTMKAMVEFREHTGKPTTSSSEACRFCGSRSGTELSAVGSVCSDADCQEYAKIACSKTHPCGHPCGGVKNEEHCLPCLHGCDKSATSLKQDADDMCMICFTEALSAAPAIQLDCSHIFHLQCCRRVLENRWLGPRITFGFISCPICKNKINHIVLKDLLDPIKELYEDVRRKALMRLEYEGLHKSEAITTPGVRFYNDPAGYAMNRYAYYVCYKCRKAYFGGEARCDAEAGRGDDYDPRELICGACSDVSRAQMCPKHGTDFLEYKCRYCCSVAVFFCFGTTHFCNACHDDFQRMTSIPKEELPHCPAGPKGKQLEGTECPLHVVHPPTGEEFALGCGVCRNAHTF
UniProt P51784: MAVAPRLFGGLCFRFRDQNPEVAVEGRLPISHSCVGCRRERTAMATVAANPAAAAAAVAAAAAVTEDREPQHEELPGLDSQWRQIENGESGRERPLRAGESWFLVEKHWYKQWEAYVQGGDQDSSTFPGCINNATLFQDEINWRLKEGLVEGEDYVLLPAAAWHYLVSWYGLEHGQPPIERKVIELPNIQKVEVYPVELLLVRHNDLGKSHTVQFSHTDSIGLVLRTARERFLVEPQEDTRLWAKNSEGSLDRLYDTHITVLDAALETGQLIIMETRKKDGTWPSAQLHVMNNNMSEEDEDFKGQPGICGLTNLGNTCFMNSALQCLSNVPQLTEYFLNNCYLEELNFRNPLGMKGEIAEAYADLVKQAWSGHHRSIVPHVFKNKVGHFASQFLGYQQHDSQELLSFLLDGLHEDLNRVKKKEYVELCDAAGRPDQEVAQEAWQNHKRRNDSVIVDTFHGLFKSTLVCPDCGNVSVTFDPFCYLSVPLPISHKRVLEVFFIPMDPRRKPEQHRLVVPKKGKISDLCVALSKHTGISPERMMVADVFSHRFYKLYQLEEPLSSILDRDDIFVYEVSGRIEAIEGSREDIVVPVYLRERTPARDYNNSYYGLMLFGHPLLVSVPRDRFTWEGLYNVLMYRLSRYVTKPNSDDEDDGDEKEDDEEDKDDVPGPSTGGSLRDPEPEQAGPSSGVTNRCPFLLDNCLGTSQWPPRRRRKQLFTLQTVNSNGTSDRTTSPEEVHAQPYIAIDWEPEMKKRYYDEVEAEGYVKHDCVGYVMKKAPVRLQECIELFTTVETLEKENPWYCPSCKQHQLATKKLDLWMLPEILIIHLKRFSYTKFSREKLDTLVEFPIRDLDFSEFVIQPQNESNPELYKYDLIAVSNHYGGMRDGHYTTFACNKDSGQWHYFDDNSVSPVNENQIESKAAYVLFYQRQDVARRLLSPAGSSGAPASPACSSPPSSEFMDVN
UniProt P63208: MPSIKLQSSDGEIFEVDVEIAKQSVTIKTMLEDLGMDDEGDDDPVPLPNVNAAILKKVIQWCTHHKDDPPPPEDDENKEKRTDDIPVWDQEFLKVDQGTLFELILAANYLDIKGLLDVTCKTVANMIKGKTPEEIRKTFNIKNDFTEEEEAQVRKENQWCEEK

Experiments:
Assay in all cases: affinity purification with mass spectrometry; Flag-tagged bait (Flag-FBXO45 or Flag-SPRYD3) expressed 30 h in HEK293T WT cells; NP-40 buffer lysate; Flag-M2 beads overnight; elution with 3x Flag peptide; LC-MS/MS, LFQ against Flag-EV, n = 4
Flag-FBXO45 [1] = molecular target: T1, Flag-FBXO45 (UniProt P0C2W1)
T1 sequence: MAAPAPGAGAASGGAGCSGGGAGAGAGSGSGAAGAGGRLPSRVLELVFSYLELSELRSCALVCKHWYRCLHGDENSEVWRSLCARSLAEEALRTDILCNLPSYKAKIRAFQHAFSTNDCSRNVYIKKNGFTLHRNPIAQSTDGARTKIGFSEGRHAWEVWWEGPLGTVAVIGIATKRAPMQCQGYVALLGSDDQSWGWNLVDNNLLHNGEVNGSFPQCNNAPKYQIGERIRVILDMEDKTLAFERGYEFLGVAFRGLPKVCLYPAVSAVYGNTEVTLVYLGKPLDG

Flag-SPRYD3 [2] = molecular target: T2, Flag-SPRYD3 (UniProt Q8NCJ5)
T2 sequence: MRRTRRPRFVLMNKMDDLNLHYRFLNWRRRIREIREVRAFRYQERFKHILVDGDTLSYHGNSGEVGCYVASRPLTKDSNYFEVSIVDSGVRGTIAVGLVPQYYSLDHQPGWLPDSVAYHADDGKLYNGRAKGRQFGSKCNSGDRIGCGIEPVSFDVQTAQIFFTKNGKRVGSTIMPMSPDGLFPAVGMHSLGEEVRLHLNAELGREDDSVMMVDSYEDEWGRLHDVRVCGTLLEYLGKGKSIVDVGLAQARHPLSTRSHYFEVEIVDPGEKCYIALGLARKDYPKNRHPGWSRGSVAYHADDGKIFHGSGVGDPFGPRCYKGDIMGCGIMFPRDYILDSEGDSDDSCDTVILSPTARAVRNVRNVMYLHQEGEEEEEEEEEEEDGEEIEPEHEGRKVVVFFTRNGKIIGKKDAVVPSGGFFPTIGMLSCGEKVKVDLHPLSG

Flag-FBXO45 [3] = molecular target: T1, Flag-FBXO45; remark: listed apart in the source
Flag-SPRYD3 [4] = molecular target: T2, Flag-SPRYD3; remark: listed apart in the source

Molecule: endogenous FBXW7 (from UniProt Q969H0 1-707)
binding (Flag-FBXO45 [1]): binds

Molecule: endogenous MYCBP2 (from UniProt O75592 1-4678)
binding (Flag-FBXO45 [1]): binds

Molecule: endogenous USP11 (from UniProt P51784 1-963) (enzyme)
binding (Flag-SPRYD3 [2]): binds

B1: endogenous SPRYD3 (protein, UniProt Q8NCJ5 1-442)
chain: T2 sequence
binding (Flag-FBXO45 [3]): binds

B3: endogenous FBXO45 (protein, UniProt P0C2W1 1-286)
chain: T1 sequence
binding (Flag-SPRYD3 [4]): binds

Second part, the molecule after the results:

binding (Flag-FBXO45 [1]): binds
Molecule: endogenous SKP1 (from UniProt P63208 1-163)

binding (Flag-SPRYD3 [4]): binds
B2: endogenous RAE1 (protein, UniProt P78406 1-368)
chain: MSLFGTTSGFGTSGTSMFGSATTDNHNPMKDIEVTSSPDDSIGCLSFSPPTLPGNFLIAGSWANDVRCWEVQDSGQTIPKAQQMHTGPVLDVCWSDDGSKVFTASCDKTAKMWDLSSNQAIQIAQHDAPVKTIHWIKAPNYSCVMTGSWDKTLKFWDTRSSNPMMVLQLPERCYCADVIYPMAVVATAERGLIVYQLENQPSEFRRIESPLKHQHRCVAIFKDKQNKPTGFALGSIEGRVAIHYINPPNPAKDNFTFKCHRSNGTNTSAPQDIYAVNGIAFHPVHGTLATVGSDGRFSFWDKDARTKLKTSEQLDQPISACCFNHNGNIFAYASSYDWSKGHEFYNPQKKNYIFLRNAAEELKPRNKK
